One test addresses Gata4^myc (UniProt Q08369). Kind of test: FLAG co-immunoprecipitation from transfected HEK293 cells, anti-myc immunoblot. On the technique in general: A western blot detects proteins with antibodies after separation by electrophoresis.
The target in a further test is Hand2^myc (UniProt Q61039). The test is described as above.
Test [1] has as its target SMARCD3^FLAG-HA (UniProt Q6STE5). In words: FLAG co-immunoprecipitation / proximity biotinylation (referred back to).
Test [2] shares this target. Kind of test: FLAG co-immunoprecipitation from transfected HEK293 cells (legend of FIG. 5, panel E).
Test [3] has the same target. Kind of test: FLAG co-immunoprecipitation from transfected HEK293 cells, anti-Ty1 immunoblot.
Test [4] shares this target. In words: FLAG co-immunoprecipitation from transfected HEK293 cells (heading sentence of the results section).
A further test addresses Smarcd3/BAF60c (mouse) (UniProt Q6P9Z1). Kind of test: miniTurbo proximity biotinylation (BioID) in MEFs, streptavidin pulldown and proteomics; proximity, not direct binding.
The target of another test is Gata4 (UniProt Q08369). Kind of test: miniTurbo proximity biotinylation (BioID) in AGHMT+PHF7^miniTurbo MEFs, streptavidin pulldown and proteomics; proximity, not direct binding.

The chains behind the UniProt entries cited, without tags or fusion partners. Residues count along the entry.
UniProt Q08369: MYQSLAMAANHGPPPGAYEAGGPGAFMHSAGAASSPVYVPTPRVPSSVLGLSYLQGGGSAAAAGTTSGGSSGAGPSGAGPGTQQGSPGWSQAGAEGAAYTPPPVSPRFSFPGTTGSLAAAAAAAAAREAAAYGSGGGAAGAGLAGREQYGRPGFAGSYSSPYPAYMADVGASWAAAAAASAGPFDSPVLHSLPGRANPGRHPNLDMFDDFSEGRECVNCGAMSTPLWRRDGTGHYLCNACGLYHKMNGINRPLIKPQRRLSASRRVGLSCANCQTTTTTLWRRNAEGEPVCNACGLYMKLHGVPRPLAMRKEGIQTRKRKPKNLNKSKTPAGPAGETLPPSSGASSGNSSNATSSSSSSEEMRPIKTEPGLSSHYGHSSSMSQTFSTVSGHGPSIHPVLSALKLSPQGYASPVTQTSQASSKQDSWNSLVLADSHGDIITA
UniProt Q61039: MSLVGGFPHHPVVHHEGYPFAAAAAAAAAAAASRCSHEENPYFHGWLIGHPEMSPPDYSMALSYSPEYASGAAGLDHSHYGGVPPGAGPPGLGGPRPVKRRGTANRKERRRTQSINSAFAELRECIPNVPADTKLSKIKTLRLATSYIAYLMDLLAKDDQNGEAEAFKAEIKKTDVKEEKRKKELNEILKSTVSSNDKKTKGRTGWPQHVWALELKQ
UniProt Q6STE5: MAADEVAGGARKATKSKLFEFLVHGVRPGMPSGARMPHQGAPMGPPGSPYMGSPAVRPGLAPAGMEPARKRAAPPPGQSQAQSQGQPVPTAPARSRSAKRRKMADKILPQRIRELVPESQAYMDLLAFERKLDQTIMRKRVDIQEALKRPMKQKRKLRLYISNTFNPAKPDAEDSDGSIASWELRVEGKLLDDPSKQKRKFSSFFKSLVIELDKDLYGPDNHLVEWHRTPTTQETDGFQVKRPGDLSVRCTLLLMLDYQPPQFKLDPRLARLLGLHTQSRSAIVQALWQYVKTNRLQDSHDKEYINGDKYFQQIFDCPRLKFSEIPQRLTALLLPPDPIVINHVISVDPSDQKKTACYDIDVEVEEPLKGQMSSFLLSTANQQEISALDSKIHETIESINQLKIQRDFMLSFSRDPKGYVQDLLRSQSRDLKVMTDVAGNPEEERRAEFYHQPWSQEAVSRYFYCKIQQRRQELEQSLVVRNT
UniProt Q6P9Z1, residues 2-483: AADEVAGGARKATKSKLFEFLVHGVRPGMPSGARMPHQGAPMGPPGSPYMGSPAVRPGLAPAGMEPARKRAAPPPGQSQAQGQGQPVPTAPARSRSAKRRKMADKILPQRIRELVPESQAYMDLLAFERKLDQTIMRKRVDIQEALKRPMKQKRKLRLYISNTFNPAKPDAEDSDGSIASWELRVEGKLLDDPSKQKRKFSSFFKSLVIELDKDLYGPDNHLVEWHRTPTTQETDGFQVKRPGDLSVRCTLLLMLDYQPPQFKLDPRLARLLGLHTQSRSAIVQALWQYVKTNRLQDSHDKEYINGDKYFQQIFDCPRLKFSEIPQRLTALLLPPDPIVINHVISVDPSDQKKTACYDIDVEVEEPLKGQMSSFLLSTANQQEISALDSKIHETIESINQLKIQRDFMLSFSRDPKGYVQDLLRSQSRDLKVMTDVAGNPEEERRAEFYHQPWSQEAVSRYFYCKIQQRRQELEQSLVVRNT

This passage reports binding results from patent US20260159812A1.

No constants are given. Whether binding was seen depends on the method and setting. Binding seen in cells or lysates may run through a third protein. Some results given as binding are weak or reduced against the parent protein; the word gives no strength. For some assays here: Sequences can lack the tags named with a protein.

B1: PHF7^FLAG-HA (protein, not shown: small tags and cut ends)
chain: MKTVKEKKECQRLRKSAKTRRVTQRKPSSGPVCWLCLREPGDPEKLGEFLQKDNISVHYFCLILSSKLPQRGQSNRGFHGFLPEDIKKEAARASRKICFVCKKKGAAINCQKDQCLRNFHLPCGQERGCLSQFFGEYKSFCDKHRPTQNIQHGHVGEESCILCCEDLSQQSVENIQSPCCSQAIYHRKCIQKYAHTSAKHFFKCPQCNNRKEFPQEMLRMGIHIPDRDAAWELEPGAFSDLYQRYQHCDAPICLYEQGRDSFEDEGRWCLILCATCGSHGTHRDCSSLRSNSKKWECEECSPAAATDYIPENSGDIPCCSSTFHPEEHFCRDNTLEENPGLSWTDWPEPSLLEKPESSRGRRSYSWRSKGVRITNSCKKSK
For B1, the binding entry with Gata4^myc and with Hand2^myc was “binds” throughout.

B2: PHF7^3xTy1 (protein, not shown: small tags and cut ends)
chain: B1 chain
With B2, the binding result with SMARCD3^FLAG-HA [1], with SMARCD3^FLAG-HA [2], with SMARCD3^FLAG-HA [3] and with SMARCD3^FLAG-HA [4] was “binds” each time.

B3: PHF7^miniTurbo (protein)
chain: B1 chain
With B3, the binding result with Smarcd3/BAF60c (mouse) and with Gata4 was “binds” each time.
